Data: PMC5586343, “t‐Darpp is an elongated monomer that binds calcium and is phosphorylated by cyclin‐dependent kinases 1 and 5” (FEBS Open Bio, 2017)
These are yes or no findings as the source states them, for the method shown. Some results given as binding are weak or reduced against the parent protein; the word gives no strength.

Sequences of proteins named here, by UniProt entry; tags and fusion partners are left off. Residues count along the entry.
UniProt P02769, residues 25-607: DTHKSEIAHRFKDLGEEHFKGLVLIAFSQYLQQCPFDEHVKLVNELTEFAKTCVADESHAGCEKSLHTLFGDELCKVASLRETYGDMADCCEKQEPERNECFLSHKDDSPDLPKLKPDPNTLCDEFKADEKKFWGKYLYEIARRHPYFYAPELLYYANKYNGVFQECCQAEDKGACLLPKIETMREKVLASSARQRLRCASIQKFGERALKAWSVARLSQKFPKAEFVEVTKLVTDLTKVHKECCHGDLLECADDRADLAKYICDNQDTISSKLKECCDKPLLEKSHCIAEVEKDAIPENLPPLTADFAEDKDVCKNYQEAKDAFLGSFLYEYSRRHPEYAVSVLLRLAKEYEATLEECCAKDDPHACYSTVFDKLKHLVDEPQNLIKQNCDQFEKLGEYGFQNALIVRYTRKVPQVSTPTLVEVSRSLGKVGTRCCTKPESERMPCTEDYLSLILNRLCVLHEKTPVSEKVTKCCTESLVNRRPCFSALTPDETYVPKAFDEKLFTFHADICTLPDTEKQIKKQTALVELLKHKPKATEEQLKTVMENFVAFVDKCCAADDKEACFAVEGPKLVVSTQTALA

Molecular target: Bovine serum albumin (bovine) (UniProt P02769)
Experiment: native gel or EMSA; blue native gel electrophoresis, no denaturing or reducing agents; 5% stacking and 8% resolving gel, Bis‐Tris/HCl pH 7.0, 100 V, 4 °C; detected by Coomassie Blue; both purified

binding: binds weakly
Substance: Bovine serum albumin (from UniProt P02769 25-607)
